Protein sequences, listed by entry. Tags and fused reporters are not part of them. Residues count along the entry.
UniProt P00441: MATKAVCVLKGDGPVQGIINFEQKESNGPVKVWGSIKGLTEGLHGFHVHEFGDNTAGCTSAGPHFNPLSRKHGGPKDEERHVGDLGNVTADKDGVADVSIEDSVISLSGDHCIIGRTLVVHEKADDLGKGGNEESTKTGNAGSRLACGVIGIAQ
UniProt Q9Y4B6: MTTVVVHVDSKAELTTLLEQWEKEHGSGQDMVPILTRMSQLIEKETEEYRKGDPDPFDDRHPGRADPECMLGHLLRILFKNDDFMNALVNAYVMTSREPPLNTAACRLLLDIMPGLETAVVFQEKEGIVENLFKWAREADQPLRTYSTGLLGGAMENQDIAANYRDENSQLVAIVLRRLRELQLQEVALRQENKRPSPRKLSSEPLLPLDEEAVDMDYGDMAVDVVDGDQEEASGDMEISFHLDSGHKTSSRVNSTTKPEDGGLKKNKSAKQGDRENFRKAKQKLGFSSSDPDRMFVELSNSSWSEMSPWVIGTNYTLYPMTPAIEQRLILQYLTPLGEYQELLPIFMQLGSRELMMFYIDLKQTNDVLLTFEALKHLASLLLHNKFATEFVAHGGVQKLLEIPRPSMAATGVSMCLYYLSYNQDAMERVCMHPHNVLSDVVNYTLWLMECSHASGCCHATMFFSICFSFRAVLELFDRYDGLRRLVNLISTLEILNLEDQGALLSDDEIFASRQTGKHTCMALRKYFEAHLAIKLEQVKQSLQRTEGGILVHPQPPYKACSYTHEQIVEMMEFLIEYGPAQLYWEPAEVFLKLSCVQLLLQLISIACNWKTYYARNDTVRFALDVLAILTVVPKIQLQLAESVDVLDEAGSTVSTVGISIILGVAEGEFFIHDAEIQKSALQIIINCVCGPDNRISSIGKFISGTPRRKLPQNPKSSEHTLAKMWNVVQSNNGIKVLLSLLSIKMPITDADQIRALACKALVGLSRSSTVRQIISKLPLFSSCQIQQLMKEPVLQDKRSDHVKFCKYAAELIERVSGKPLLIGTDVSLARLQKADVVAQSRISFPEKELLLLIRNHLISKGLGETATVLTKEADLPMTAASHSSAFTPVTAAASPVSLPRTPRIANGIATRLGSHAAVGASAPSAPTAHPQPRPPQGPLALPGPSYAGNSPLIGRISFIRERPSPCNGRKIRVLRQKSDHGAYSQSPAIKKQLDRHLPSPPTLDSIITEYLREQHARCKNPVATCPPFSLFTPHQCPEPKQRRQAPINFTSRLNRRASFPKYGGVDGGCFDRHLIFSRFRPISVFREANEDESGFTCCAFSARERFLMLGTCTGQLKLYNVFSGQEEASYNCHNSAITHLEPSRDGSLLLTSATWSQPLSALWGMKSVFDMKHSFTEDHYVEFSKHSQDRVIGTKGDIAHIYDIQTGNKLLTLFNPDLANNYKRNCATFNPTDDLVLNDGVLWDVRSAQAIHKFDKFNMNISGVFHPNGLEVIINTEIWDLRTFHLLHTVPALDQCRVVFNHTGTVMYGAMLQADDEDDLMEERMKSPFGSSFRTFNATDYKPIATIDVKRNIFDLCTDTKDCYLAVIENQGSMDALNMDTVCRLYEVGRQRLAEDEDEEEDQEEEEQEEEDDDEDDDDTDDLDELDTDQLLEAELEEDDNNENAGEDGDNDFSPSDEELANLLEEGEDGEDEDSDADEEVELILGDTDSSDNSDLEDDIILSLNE
UniProt P18510, residues 26-177: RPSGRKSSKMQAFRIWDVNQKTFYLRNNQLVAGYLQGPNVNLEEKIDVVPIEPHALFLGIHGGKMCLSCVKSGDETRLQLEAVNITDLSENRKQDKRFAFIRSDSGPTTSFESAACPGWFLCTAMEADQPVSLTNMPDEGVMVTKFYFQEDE
UniProt Q7Z494: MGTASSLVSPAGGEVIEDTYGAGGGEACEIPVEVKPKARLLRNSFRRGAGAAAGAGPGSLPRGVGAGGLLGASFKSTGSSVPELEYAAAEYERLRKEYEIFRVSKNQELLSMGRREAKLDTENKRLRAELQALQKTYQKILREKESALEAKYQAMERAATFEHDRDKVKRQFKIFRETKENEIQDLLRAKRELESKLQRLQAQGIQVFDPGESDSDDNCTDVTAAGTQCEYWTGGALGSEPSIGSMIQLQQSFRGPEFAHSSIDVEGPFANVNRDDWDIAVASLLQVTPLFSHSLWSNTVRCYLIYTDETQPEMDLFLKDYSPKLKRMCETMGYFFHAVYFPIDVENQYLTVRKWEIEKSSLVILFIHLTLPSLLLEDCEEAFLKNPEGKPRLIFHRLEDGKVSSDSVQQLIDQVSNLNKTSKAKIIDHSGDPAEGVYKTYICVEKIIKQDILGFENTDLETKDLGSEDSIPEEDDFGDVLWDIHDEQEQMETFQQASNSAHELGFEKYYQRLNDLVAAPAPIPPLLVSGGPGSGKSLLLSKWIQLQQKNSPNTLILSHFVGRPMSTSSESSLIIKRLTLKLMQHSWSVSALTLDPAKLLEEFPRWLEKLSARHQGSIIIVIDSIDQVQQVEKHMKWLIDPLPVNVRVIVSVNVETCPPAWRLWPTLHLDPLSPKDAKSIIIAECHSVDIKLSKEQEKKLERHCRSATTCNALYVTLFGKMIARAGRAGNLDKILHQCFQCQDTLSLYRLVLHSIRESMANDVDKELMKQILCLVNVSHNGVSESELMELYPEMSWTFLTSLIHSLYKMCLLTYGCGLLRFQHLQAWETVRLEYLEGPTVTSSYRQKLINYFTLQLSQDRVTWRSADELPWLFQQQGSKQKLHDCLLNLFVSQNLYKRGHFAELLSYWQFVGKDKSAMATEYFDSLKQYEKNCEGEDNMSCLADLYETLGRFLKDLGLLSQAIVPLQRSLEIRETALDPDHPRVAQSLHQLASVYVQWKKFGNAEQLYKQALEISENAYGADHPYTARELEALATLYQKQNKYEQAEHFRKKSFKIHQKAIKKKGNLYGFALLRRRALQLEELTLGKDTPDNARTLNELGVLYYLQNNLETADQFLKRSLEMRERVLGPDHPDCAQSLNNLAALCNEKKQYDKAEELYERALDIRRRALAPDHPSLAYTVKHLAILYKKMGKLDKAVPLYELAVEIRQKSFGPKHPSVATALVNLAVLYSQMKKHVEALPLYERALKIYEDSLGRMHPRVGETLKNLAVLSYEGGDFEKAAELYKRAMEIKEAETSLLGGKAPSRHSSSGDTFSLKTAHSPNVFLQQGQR

According to article PMC10648221:

T1: SPRY domain-containing protein 7 (human) (UniProt Q5W111)
T1 sequence: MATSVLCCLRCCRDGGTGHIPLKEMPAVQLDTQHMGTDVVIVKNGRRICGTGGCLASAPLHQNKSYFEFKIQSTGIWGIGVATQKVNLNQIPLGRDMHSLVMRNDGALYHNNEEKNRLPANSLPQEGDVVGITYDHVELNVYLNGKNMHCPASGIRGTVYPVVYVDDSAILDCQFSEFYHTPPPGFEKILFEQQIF

B1: CAPNS2 (protein, UniProt Q96L46 1-248)
chain: MFLAKALLEGADRGLGEALGGLFGGGGQRREGGGRNIGGIVGGIVNFISEAAAAQYTPEPPPTQQHFTSVEASESEEVRRFRQQFTQLAGPDMEVGATDLMNILNKVLSKHKDLKTDGFSLDTCRSIVSVMDSDTTGKLGFEEFKYLWNNIKKWQCVYKQYDRDHSGSLGSSQLRGALQAAGFQLNEQLYQMIVRRYANEDGDMDFNNFISCLVRLDAMFRAFKSLDRDRDGLIQVSIKEWLQLTMYS
B2: A2ML1 (protein, UniProt A8K2U0 18-1454)
chain: EELPNYLVTLPARLNFPSVQKVCLDLSPGYSDVKFTVTLETKDKTQKLLEYSGLKKRHLHCISFLVPPPAGGTEEVATIRVSGVGNNISFEEKKKVLIQRQGNGTFVQTDKPLYTPGQQVYFRIVTMDSNFVPVNDKYSMVELQDPNSNRIAQWLEVVPEQGIVDLSFQLAPEAMLGTYTVAVAEGKTFGTFSVEEYVLPKFKVEVVEPKELSTVQESFLVKICCRYTYGKPMLGAVQVSVCQKANTYWYREVEREQLPDKCRNLSGQTDKTGCFSAPVDMATFDLIGYAYSHQINIVATVVEEGTGVEANATQNIYISPQMGSMTFEDTSNFYHPNFPFSGKIRVRGHDDSFLKNHLVFLVIYGTNGTFNQTLVTDNNGLAPFTLETSGWNGTDVSLEGKFQMEDLVYNPEQVPRYYQNAYLHLRPFYSTTRSFLGIHRLNGPLKCGQPQEVLVDYYIDPADASPDQEISFSYYLIGKGSLVMEGQKHLNSKKKGLKASFSLSLTFTSRLAPDPSLVIYAIFPSGGVVADKIQFSVEMCFDNQVSLGFSPSQQLPGAEVELQLQAAPGSLCALRAVDESVLLLRPDRELSNRSVYGMFPFWYGHYPYQVAEYDQCPVSGPWDFPQPLIDPMPQGHSSQRSIIWRPSFSEGTDLFSFFRDVGLKILSNAKIKKPVDCSHRSPEYSTAMGAGGGHPEAFESSTPLHQAEDSQVRQYFPETWLWDLFPIGNSGKEAVHVTVPDAITEWKAMSFCTSQSRGFGLSPTVGLTAFKPFFVDLTLPYSVVRGESFRLTATIFNYLKDCIRVQTDLAKSHEYQLESWADSQTSSCLCADDAKTHHWNITAVKLGHINFTISTKILDSNEPCGGQKGFVPQKGRSDTLIKPVLVKPEGVLVEKTHSSLLCPKGKVASESVSLELPVDIVPDSTKAYVTVLGDIMGTALQNLDGLVQMPSGCGEQNMVLFAPIIYVLQYLEKAGLLTEEIRSRAVGFLEIGYQKELMYKHSNGSYSAFGERDGNGNTWLTAFVTKCFGQAQKFIFIDPKNIQDALKWMAGNQLPSGCYANVGNLLHTAMKGGVDDEVSLTAYVTAALLEMGKDVDDPMVSQGLRCLKNSATSTTNLYTQALLAYIFSLAGEMDIRNILLKQLDQQAIISGESIYWSQKPTPSSNASPWSEPAAVDVELTAYALLAQLTKPSLTQKEIAKATSIVAWLAKQHNAYGGFSSTQDTVVALQALAKYATTAYMPSEEINLVVKSTENFQRTFNIQSVNRLVFQQDTLPNVPGMYTLEASGQGCVYVQTVLRYNILPPTNMKTFSLSVEIGKARCEQPTSPRSLTLTIHTSYVGSRSSSNMAIVEVKMLSGFSPMEGTNQLLLQQPLVKKVEFGTDTLNIYLDELIKNTQTYTFTISQSVLVTNLKPATIKVYDYYLPDEQATIQYSDPCE
B3: BLMH (protein, UniProt Q13867 1-455)
chain: MSSSGLNSEKVAALIQKLNSDPQFVLAQNVGTTHDLLDICLKRATVQRAQHVFQHAVPQEGKPITNQKSSGRCWIFSCLNVMRLPFMKKLNIEEFEFSQSYLFFWDKVERCYFFLSAFVDTAQRKEPEDGRLVQFLLMNPANDGGQWDMLVNIVEKYGVIPKKCFPESYTTEATRRMNDILNHKMREFCIRLRNLVHSGATKGEISATQDVMMEEIFRVVCICLGNPPETFTWEYRDKDKNYQKIGPITPLEFYREHVKPLFNMEDKICLVNDPRPQHKYNKLYTVEYLSNMVGGRKTLYNNQPIDFLKKMVAASIKDGEAVWFGCDVGKHFNSKLGLSDMNLYDHELVFGVSLKNMNKAERLTFGESLMTHAMTFTAVSEKDDQDGAFTKWRVENSWGEDHGHKGYLCMTDEWFSEYVYEVVVDRKHVPEEVLAVLEQEPIILPAWDPMGALAE
B4: SERPINB5 (protein, UniProt P36952 1-375)
chain: MDALQLANSAFAVDLFKQLCEKEPLGNVLFSPICLSTSLSLAQVGAKGDTANEIGQVLHFENVKDVPFGFQTVTSDVNKLSSFYSLKLIKRLYVDKSLNLSTEFISSTKRPYAKELETVDFKDKLEETKGQINNSIKDLTDGHFENILADNSVNDQTKILVVNAAYFVGKWMKKFSESETKECPFRVNKTDTKPVQMMNMEATFCMGNIDSINCKIIELPFQNKHLSMFILLPKDVEDESTGLEKIEKQLNSESLSQWTNPSTMANAKVKLSIPKFKVEKMIDPKACLENLGLKHIFSEDTSDFSGMSETKGVALSNVIHKVCLEITEDGGDSIEVPGARILQHKDELNADHPFIYIIRHNKTRNIIFFGKFCSP
B5: TYMP (protein, UniProt P19971 11-482)
chain: APPAPGDFSGEGSQGLPDPSPEPKQLPELIRMKRDGGRLSEADIRGFVAAVVNGSAQGAQIGAMLMAIRLRGMDLEETSVLTQALAQSGQQLEWPEAWRQQLVDKHSTGGVGDKVSLVLAPALAACGCKVPMISGRGLGHTGGTLDKLESIPGFNVIQSPEQMQVLLDQAGCCIVGQSEQLVPADGILYAARDVTATVDSLPLITASILSKKLVEGLSALVVDVKFGGAAVFPNQEQARELAKTLVGVGASLGLRVAAALTAMDKPLGRCVGHALEVEEALLCMDGAGPPDLRDLVTTLGGALLWLSGHAGTQAQGAARVAAALDDGSALGRFERMLAAQGVDPGLARALCSGSPAERRQLLPRAREQEELLAPADGTVELVRALPLALVLHELGAGRSRAGEPLRLGVGAELLVDVGQRLRRGTPWLRVHRDGPALSGPQSRALQEALVLSDRAPFAAPSPFAELVLPPQQ
B6: ARG1 (protein, UniProt P05089 1-322)
chain: MSAKSRTIGIIGAPFSKGQPRGGVEEGPTVLRKAGLLEKLKEQECDVKDYGDLPFADIPNDSPFQIVKNPRSVGKASEQLAGKVAEVKKNGRISLVLGGDHSLAIGSISGHARVHPDLGVIWVDAHTDINTPLTTTSGNLHGQPVSFLLKELKGKIPDVPGFSWVTPCISAKDIVYIGLRDVDPGEHYILKTLGIKYFSMTEVDRLGIGKVMEETLSYLLGRKKRPIHLSFDVDGLDPSFTPATGTPVVGGLTYREGLYITEEIYKTGLLSGLDIMEVNPSLGKTPEEVTRTVNTAVAITLACFGLAREGNHKPIDYLNPPK

target: T1, SPRY domain-containing protein 7 (human); assay: affinity purification with mass spectrometry; IP with anti-SPRYD7 monoclonal antibody and Protein G agarose from 3 mg RIPA protein extract of KM12C and KM12SM cells stably overexpressing SPRYD7, 4 °C, washed 4 times with RIPA; LC-MS/MS; proteins on the precleaning beads as negative control; CRAPome filter

binding	Molecule
binds	SOD1 (from UniProt P00441 1-154)
binds	VPRBP (from UniProt Q9Y4B6 1-1507)
binds	IL1RN (from UniProt P18510 26-177)
binds	NPHP3 (from UniProt Q7Z494 1-1330)
binds	B1
binds	B2
binds	B3
binds	B4
binds	B5
binds	B6

Results are given in words; binding and its absence hold for the method and conditions named. Binding seen in cells or lysates may run through a third protein. Here binding means that the protein was enriched with, or labelled near, the bait; the list need not be complete.
